“Also recorded” adds a separate entry of the source. At least one structure is not confirmed: it was looked up by name or label, or the drawing left a doubt.
System: aged cats with chronic kidney disease (CKD), IRIS stage 1-3
Assay: Retrospective case-controlled study: long-term meloxicam in aged cats with CKD (Group A) vs age and IRIS matched untreated controls (Group C)
Type: in vivo, cat

Cc1cnc(NC(=O)C2=C(O)c3ccccc3S(=O)(=O)N2C)s1 [meloxicam] was tested, and the “progression of renal disease” value (maintenance dose of 0.02 mg/kg, aged cats, IRIS stage 1-3 renal disease) was “does not hasten progression of renal disease”, the “mean serum creatinine concentration over time (progression of creatinine values)” value (meloxicam treated CKD group (A) vs untreated CKD group (C), maintenance dose 0.02 mg/kg, 0.02 mg/kg) was “delays progression of the creatinine values; also recorded: increased less over time” and the “progression of renal parameters” value (renal group treated with meloxicam (A) vs age and IRIS matched untreated renal group, median maintenance dose 0.02 mg/kg daily, median treatment duration 467 days) was “no differences”.
